In assay [1] the target is T1, semaphorin 7A (murine, Sema7a) (mouse (endogenous in murine blood and heart tissue)) (UniProt Q9QUR8).
T1 sequence: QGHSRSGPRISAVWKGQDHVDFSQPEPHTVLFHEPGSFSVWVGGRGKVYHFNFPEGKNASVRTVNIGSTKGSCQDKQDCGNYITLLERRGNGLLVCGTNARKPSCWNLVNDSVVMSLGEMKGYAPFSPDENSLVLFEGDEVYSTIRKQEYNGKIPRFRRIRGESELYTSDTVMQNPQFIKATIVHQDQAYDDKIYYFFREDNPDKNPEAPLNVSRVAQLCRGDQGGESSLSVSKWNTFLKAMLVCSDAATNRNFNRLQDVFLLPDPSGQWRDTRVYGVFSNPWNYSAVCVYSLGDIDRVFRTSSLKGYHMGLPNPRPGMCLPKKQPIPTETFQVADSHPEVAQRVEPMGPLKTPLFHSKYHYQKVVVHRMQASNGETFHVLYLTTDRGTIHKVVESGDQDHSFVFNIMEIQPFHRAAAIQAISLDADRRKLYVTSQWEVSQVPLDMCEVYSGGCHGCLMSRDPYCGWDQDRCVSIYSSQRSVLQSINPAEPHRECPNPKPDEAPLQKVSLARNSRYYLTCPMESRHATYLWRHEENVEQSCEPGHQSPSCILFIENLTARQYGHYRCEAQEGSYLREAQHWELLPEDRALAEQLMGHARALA
Nature of the assay: co-IP; Pierce Co-IP Kit; anti-Sema7a (sc374432) or anti-GPIb (p0p4) antibody immobilised on Amino Link Plus Coupling Resin; lysates of murine blood (60-min ischemia, 1-min reperfusion) or heart AAR (60-min ischemia, 15-min reperfusion) in IP-Lysis/wash buffer; rat or mouse IgG as control; immunoblot for GPIb (p0p5) or Sema7a (sc135263). For orientation: In western blotting, separated proteins are transferred to a membrane and probed.

Assay [2] deals with platelet glycoprotein Ib (GPIb) (mouse (endogenous in murine blood and heart tissue)). The assay is described as above.

Results are given in words; binding and its absence hold for the method and conditions named. Binding seen in cells or lysates may run through a third protein. A result given as binding can be weak or reduced; the word gives no strength.

Regarding “platelet glycoprotein Ib (GPIb) (receptor)”, in assay [1], the binding entry is listed as “binds”.

B1: semaphorin 7A (murine, Sema7a) (protein, UniProt Q9QUR8 45-646)
chain: QGHSRSGPRISAVWKGQDHVDFSQPEPHTVLFHEPGSFSVWVGGRGKVYHFNFPEGKNASVRTVNIGSTKGSCQDKQDCGNYITLLERRGNGLLVCGTNARKPSCWNLVNDSVVMSLGEMKGYAPFSPDENSLVLFEGDEVYSTIRKQEYNGKIPRFRRIRGESELYTSDTVMQNPQFIKATIVHQDQAYDDKIYYFFREDNPDKNPEAPLNVSRVAQLCRGDQGGESSLSVSKWNTFLKAMLVCSDAATNRNFNRLQDVFLLPDPSGQWRDTRVYGVFSNPWNYSAVCVYSLGDIDRVFRTSSLKGYHMGLPNPRPGMCLPKKQPIPTETFQVADSHPEVAQRVEPMGPLKTPLFHSKYHYQKVVVHRMQASNGETFHVLYLTTDRGTIHKVVESGDQDHSFVFNIMEIQPFHRAAAIQAISLDADRRKLYVTSQWEVSQVPLDMCEVYSGGCHGCLMSRDPYCGWDQDRCVSIYSSQRSVLQSINPAEPHRECPNPKPDEAPLQKVSLARNSRYYLTCPMESRHATYLWRHEENVEQSCEPGHQSPSCILFIENLTARQYGHYRCEAQEGSYLREAQHWELLPEDRALAEQLMGHARALA
Regarding B1, the binding result in assay [2] was “binds”.

The values are drawn from article PMC7066172.
